Results as given in the supplement of paper PMC10849652.
The list shows a part of the results.

The chains behind the UniProt entries cited, without tags or fusion partners. Where a name states a change or a piece, a line headed by the entry shows the natural chain unless it says otherwise.
UniProt Q8N6T3: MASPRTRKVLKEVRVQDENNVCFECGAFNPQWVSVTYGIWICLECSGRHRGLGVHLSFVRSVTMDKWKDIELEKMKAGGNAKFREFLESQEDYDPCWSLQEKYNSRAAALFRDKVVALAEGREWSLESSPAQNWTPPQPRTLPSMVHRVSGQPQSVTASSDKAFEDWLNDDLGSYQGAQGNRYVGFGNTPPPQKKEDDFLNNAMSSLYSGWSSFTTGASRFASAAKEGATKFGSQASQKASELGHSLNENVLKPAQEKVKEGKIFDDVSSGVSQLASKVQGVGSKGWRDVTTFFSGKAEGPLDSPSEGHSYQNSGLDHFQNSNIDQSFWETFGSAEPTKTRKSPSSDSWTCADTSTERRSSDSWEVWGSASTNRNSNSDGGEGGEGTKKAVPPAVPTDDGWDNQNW
UniProt Q9BZZ5: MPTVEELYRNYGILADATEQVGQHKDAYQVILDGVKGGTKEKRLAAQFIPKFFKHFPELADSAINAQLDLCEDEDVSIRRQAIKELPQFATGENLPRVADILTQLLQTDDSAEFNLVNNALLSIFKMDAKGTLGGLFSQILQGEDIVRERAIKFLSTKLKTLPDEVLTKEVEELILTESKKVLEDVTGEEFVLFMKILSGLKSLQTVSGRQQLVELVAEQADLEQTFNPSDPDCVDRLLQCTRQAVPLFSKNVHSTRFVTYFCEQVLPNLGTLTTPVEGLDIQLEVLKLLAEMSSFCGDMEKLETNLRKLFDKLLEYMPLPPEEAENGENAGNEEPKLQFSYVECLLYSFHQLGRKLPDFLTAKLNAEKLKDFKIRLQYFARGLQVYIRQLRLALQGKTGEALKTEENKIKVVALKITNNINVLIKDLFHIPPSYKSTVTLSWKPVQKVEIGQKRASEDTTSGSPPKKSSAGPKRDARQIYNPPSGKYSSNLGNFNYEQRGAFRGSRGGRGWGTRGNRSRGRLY
UniProt Q9Y689: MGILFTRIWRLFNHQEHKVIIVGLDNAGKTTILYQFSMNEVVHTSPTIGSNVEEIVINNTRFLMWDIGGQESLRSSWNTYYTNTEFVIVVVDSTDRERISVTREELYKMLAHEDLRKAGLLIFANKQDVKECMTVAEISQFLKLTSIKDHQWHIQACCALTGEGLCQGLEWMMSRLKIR
UniProt Q96BI3, whole entry, looked up: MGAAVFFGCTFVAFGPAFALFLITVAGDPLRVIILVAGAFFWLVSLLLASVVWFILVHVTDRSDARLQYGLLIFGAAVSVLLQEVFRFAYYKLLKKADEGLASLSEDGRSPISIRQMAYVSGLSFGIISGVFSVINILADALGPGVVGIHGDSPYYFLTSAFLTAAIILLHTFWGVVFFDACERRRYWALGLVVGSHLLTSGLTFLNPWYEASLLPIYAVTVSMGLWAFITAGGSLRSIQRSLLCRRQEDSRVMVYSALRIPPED
UniProt P29374: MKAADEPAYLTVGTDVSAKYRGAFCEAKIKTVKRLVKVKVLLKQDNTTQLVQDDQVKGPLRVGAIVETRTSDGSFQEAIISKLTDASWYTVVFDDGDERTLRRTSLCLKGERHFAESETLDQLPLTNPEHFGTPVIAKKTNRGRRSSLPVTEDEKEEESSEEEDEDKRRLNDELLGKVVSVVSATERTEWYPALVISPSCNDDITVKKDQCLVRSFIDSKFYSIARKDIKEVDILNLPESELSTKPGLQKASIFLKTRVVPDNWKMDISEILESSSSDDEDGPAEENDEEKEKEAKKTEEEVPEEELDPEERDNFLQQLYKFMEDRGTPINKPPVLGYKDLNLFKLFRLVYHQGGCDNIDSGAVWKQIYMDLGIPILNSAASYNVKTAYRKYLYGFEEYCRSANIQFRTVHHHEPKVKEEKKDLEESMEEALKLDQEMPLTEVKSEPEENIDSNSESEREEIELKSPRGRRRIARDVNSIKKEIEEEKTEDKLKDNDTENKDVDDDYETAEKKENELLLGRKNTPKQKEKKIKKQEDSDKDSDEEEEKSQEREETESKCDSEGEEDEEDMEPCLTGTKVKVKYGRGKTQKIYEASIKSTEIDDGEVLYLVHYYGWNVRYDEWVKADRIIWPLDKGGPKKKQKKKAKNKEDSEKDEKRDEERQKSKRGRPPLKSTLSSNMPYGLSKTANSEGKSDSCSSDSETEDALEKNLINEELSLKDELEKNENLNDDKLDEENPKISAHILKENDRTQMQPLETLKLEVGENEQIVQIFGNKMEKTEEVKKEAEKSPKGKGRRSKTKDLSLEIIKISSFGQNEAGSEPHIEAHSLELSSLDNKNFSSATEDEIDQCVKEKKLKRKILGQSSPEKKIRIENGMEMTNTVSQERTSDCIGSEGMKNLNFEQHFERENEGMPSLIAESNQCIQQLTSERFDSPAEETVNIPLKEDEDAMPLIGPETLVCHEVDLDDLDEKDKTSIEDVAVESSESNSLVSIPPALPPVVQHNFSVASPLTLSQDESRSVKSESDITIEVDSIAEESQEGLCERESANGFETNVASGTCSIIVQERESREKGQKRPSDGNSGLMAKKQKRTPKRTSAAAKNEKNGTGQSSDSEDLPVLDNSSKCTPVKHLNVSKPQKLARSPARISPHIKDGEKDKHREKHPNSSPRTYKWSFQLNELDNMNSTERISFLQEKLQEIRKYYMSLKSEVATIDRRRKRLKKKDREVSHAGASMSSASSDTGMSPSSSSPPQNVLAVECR
UniProt Q8N264: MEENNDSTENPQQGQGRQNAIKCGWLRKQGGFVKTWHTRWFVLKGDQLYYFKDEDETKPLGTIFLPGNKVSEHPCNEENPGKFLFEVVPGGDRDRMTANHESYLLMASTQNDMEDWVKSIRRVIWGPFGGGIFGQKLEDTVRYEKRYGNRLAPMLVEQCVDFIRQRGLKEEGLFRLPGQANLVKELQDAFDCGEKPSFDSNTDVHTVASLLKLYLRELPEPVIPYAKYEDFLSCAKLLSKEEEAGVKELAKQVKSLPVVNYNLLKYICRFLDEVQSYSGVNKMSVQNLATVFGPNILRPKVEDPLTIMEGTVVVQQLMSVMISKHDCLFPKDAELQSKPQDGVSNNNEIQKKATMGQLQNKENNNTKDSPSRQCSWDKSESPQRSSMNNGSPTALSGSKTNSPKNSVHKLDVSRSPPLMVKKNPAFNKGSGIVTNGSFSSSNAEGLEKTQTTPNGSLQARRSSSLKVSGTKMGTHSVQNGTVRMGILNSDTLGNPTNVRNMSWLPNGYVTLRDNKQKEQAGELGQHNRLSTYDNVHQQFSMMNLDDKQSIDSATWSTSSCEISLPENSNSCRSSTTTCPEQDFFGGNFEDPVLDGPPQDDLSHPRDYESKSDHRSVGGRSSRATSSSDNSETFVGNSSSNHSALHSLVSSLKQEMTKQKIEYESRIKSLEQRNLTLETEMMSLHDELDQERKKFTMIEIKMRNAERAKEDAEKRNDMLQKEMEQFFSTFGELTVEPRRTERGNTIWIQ
UniProt Q9H2C2: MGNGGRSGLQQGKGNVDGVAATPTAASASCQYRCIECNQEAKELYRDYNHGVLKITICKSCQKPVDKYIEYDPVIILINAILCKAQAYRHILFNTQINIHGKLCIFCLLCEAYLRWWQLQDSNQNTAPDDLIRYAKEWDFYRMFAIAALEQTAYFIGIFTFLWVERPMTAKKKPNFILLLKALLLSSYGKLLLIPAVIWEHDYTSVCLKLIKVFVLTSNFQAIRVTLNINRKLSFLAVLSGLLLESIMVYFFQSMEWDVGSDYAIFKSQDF
UniProt Q93070: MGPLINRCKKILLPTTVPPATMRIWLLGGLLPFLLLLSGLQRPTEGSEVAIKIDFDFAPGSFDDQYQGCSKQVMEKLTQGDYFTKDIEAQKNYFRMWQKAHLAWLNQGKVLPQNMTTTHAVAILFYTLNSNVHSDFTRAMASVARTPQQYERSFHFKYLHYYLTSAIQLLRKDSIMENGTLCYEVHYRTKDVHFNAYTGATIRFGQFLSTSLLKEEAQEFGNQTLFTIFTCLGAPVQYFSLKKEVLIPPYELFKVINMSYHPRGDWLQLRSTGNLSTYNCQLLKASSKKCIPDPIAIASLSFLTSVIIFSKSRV
UniProt Q6P1M9: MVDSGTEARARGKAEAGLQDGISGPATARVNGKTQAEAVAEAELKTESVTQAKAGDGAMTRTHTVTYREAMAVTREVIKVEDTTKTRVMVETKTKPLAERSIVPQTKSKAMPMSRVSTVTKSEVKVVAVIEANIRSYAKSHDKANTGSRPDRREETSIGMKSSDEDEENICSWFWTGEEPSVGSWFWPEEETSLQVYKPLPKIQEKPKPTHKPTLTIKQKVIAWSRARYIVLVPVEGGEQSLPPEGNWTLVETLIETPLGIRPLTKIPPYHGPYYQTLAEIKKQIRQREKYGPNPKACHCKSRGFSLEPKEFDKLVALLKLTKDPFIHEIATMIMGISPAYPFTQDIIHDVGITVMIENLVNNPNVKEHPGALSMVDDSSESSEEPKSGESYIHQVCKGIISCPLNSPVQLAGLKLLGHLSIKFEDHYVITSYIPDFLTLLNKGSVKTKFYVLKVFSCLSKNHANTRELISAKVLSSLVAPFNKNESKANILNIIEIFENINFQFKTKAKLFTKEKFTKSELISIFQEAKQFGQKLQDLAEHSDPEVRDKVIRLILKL
UniProt Q9NWB6: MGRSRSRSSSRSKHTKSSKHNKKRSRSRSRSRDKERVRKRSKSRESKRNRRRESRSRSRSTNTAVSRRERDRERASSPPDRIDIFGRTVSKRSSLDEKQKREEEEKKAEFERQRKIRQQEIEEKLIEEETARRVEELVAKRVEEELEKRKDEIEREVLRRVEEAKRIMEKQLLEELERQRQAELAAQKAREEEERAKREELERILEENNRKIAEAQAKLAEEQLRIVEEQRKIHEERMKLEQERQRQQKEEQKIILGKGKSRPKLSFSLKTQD
UniProt Q9Y2Y0: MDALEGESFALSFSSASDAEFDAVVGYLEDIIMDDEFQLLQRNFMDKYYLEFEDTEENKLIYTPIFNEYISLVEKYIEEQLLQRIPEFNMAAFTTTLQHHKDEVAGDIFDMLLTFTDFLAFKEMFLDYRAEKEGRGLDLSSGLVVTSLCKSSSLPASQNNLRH

Assays:
Experiment in all cases: log2 fold change, soluble protein after heating vs DMSO (PISA); higher = thermal stabilisation; K562 lysate, 10 uM; active = over 0.2 and 3.5 SD of the protein, either way, in both replicates (recomputed)
alvocidib = compound: CN1CC[C@H](c2c(O)cc(O)c3c(=O)cc(-c4ccccc4Cl)oc23)[C@H](O)C1 [alvocidib]
Procedure, shortened: (§1)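 Thermal stability, expressed as log-two fold change relative to solvent controls, is given from duplicates. Crude K562 extract in PBS pH 7.4 with 1 mM MgCl2, at 1 mg/mL protein, was treated with 10 μM compound for 30 min and heated in aliquots for 3 min across 48°C-58°C. After pooling, adjustment to 0.5% NP-40 at 4°C and centrifugation at 21,000xg for 90 min, supernatant protein was measured by TMTpro 16plex LC-MS/MS with channel sums equalised.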

Tubastatin A = compound: CN1CCc2c(c3ccccc3n2Cc2ccc(C(=O)NO)cc2)C1 [Tubastatin A]
Procedure, shortened: as §1

[1] = compound: CNC(=O)C1=CC=CC=C1NC2=NC(=NC=C2Cl)NC3=C(C=C(C=C3)N4CCOCC4)OC
Procedure, shortened: as §1

defactinib = compound: CNC(=O)c1ccc(Nc2ncc(C(F)(F)F)c(NCc3nccnc3N(C)S(C)(=O)=O)n2)cc1 [defactinib]
Procedure, shortened: as §1

[2] = compound: CNc1nc(-c2ccc3c(N)n[nH]c3c2)cc(N2C[C@@H](C(=O)NC3CCCCC3)CC[C@H]2C)n1
Procedure, shortened: as §1

encorafenib = compound: COC(=O)N[C@@H](C)CNc1nccc(-c2cn(C(C)C)nc2-c2cc(Cl)cc(NS(C)(=O)=O)c2F)n1 [encorafenib]
Procedure, shortened: as §1

[3] = compound: COC(=O)[C@H](CCSC)NC(=O)C1=C(C=C(C=C1)NC[C@H](CS)N)C2=CC=CC=C2
Procedure, shortened: as §1

alisertib = compound: COc1cc(Nc2ncc3c(n2)-c2ccc(Cl)cc2C(c2c(F)cccc2OC)=NC3)ccc1C(=O)O [alisertib]
Procedure, shortened: as §1

[4] = compound: COc1cc2nc(-c3cc(F)ccc3O)nc(N[C@@H]3CNC[C@H]3C(C)(C)O)c2cc1OC
Procedure, shortened: as §1

gefitinib = compound: COc1cc2ncnc(Nc3ccc(F)c(Cl)c3)c2cc1OCCCN1CCOCC1 [gefitinib]
Procedure, shortened: as §1

lapatinib = compound: CS(=O)(=O)CCNCc1ccc(-c2ccc3ncnc(Nc4ccc(OCc5cccc(F)c5)c(Cl)c4)c3c2)o1 [lapatinib]
Procedure, shortened: as §1

pictilisib = compound: CS(=O)(=O)N1CCN(Cc2cc3nc(-c4cccc5[nH]ncc45)nc(N4CCOCC4)c3s2)CC1 [pictilisib]
Procedure, shortened: as §1

crizotinib = compound: C[C@@H](Oc1cc(-c2cnn(C3CCNCC3)c2)cnc1N)c1c(Cl)ccc(F)c1Cl [crizotinib]
Procedure, shortened: as §1

[5] = compound: C[C@H](C1=CC=C(C=C1)C(=O)NC2=C3C=CNC3=NC=C2)N
Procedure, shortened: as §1

duvelisib = compound: C[C@H](Nc1ncnc2nc[nH]c12)c1cc2cccc(Cl)c2c(=O)n1-c1ccccc1 [duvelisib]
Procedure, shortened: as §1

gandotinib = compound: Cc1cc(Nc2cc(CN3CCOCC3)c3nc(C)c(Cc4ccc(Cl)cc4F)n3n2)n[nH]1 [gandotinib]
Procedure, shortened: as §1

tozasertib = compound: Cc1cc(Nc2cc(N3CCN(C)CC3)nc(Sc3ccc(NC(=O)C4CC4)cc3)n2)n[nH]1 [tozasertib]
Procedure, shortened: as §1

doramapimod = compound: Cc1ccc(-n2nc(C(C)(C)C)cc2NC(=O)Nc2ccc(OCCN3CCOCC3)c3ccccc23)cc1 [doramapimod]
Procedure, shortened: as §1

bafetinib = compound: Cc1ccc(NC(=O)c2ccc(CN3CC[C@H](N(C)C)C3)c(C(F)(F)F)c2)cc1Nc1nccc(-c2cncnc2)n1 [bafetinib]
Procedure, shortened: as §1

[6] = compound: Cc1cccc(CC(=O)N2CCc3c2ccc(-c2cn(C)c4ncnc(N)c24)c3F)n1
Procedure, shortened: as §1

| Target | log2 fold change (alvocidib) | log2 fold change (Tubastatin A) | log2 fold change [1] | log2 fold change (defactinib) | log2 fold change [2] | log2 fold change (encorafenib) | log2 fold change [3] | log2 fold change (alisertib) | log2 fold change [4] | log2 fold change (gefitinib) | log2 fold change (lapatinib) | log2 fold change (pictilisib) | log2 fold change (crizotinib) | log2 fold change [5] | log2 fold change (duvelisib) | log2 fold change (gandotinib) | log2 fold change (tozasertib) | log2 fold change (doramapimod) | log2 fold change (bafetinib) | log2 fold change [6] |
| --- | --- | --- | --- | --- | --- | --- | --- | --- | --- | --- | --- | --- | --- | --- | --- | --- | --- | --- | --- | --- |
| ARFGAP1 (UniProt Q8N6T3) | inactive: -0.001 | inactive: -0.008 | inactive: 0.105 | inactive: 0.115 | inactive: 0.025 | inactive: 0.355 | inactive: -0.054 | inactive: 0.245 | inactive: 0.097 | inactive: 0.209 | inactive: 0.002 | inactive: 0.175 | inactive: 0.031 | inactive: -0.077 | inactive: -0.054 | active: 1.08 | inactive: -0.011 | inactive: 0.202 | inactive: -0.157 | inactive: 0.202 |
| API5 isoform 1 (UniProt Q9BZZ5) | inactive: -0.089 | inactive: 0.105 | – | – | – | – | – | inactive: 0.029 | – | inactive: -0.159 | – | – | inactive: 0.073 | inactive: 0.201 | – | inactive: 0.079 | – | inactive: 0.065 | – | inactive: 0.025 |
| ARL5A (UniProt Q9Y689) | inactive: -0.134 | inactive: 0.02 | – | inactive: -0.105 | inactive: 0.177 | inactive: -0.06 | inactive: -0.064 | inactive: -0.074 | inactive: 0.094 | inactive: -0.054 | inactive: 0.06 | – | inactive: -0.064 | inactive: -0.147 | inactive: 0.04 | inactive: -0.092 | inactive: 0.12 | inactive: 0.003 | – | inactive: 0.013 |
| APH1A (UniProt Q96BI3) | inactive: 0.129 | – | inactive: -0.053 | – | – | inactive: -0.001 | inactive: -0.159 | inactive: 0.046 | inactive: 0.028 | inactive: -0.037 | inactive: -0.073 | inactive: 0.031 | inactive: -0.034 | inactive: 0.153 | – | inactive: -0.028 | inactive: 0.07 | inactive: -0.029 | inactive: -0.027 | inactive: -0.204 |
| ARID4A (UniProt P29374) | inactive: -0.212 | inactive: -0.067 | inactive: -0.015 | inactive: -0.171 | inactive: 0.139 | – | – | inactive: 0.08 | – | inactive: 0.007 | – | – | – | inactive: -0.06 | inactive: -0.046 | inactive: -0.153 | – | – | – | inactive: 0.145 |
| ARHGAP24 (UniProt Q8N264) | inactive: 0.031 | – | inactive: 0.135 | inactive: -0.325 | – | inactive: 0.174 | inactive: -0.128 | inactive: 0.039 | – | inactive: 0.126 | – | – | – | inactive: 0.187 | – | inactive: -0.018 | inactive: 0.067 | – | – | inactive: -0.015 |
| ARV1 (UniProt Q9H2C2) | inactive: 0.2 | inactive: -0.001 | – | inactive: 0.088 | inactive: -0.153 | inactive: -0.03 | inactive: -0.295 | inactive: -0.12 | inactive: 0.087 | inactive: 0.115 | inactive: -0.1 | inactive: 0.023 | inactive: 0.077 | inactive: -0.067 | inactive: -0.08 | inactive: -0.084 | inactive: -0.002 | inactive: -0.129 | inactive: -0.117 | inactive: 0.029 |
| ART4 (UniProt Q93070) | inactive: 0.024 | – | – | inactive: -0.041 | – | inactive: 0.001 | inactive: -0.088 | – | – | – | – | inactive: 0.005 | – | inactive: 0.028 | – | inactive: 0.012 | inactive: 0.07 | – | inactive: -0.019 | inactive: -0.008 |
| ARMCX5 (UniProt Q6P1M9) | inactive: 0.029 | inactive: -0.105 | inactive: 0.067 | inactive: 0.014 | inactive: -0.012 | inactive: 0.045 | inactive: 0.023 | inactive: -0.003 | inactive: 0.035 | inactive: 0.035 | inactive: -0.033 | inactive: 0.04 | – | inactive: -0.001 | inactive: -0.114 | inactive: 0.001 | inactive: 0.032 | – | inactive: -0.104 | inactive: 0.078 |
| ARPC3 (UniProt O15145) | inactive: 0.084 | inactive: 0.018 | inactive: 0.007 | inactive: 0.05 | inactive: -0.011 | inactive: 0 | inactive: 0.011 | inactive: 0.001 | inactive: -0.043 | inactive: 0.025 | inactive: 0.042 | inactive: -0.039 | inactive: 0.043 | inactive: 0.073 | inactive: -0.026 | inactive: -0.067 | inactive: 0.009 | inactive: -0.03 | inactive: 0.053 | inactive: -0.099 |
| ARGLU1 (UniProt Q9NWB6) | inactive: -0.119 | inactive: 0.018 | inactive: -0.056 | inactive: -0.049 | inactive: 0.01 | inactive: 0.012 | inactive: -0.039 | inactive: -0.006 | inactive: 0.012 | inactive: 0.006 | inactive: 0.038 | inactive: 0.013 | inactive: 0.043 | inactive: -0.062 | inactive: -0.023 | inactive: -0.119 | inactive: 0.045 | inactive: 0.019 | inactive: -0.014 | inactive: 0.013 |
| ARL2BP (UniProt Q9Y2Y0) | inactive: -0.022 | inactive: 0.018 | inactive: 0.029 | inactive: -0.036 | inactive: 0.052 | inactive: 0.01 | inactive: -0.048 | inactive: -0.019 | inactive: -0.024 | inactive: 0.007 | inactive: 0.003 | inactive: -0.001 | inactive: -0.103 | inactive: -0.123 | inactive: -0.048 | inactive: -0.035 | inactive: -0.02 | inactive: 0.073 | inactive: -0.035 | inactive: 0.099 |

Retrieved one by one from the list above (2):

| Target | log2 fold change (alvocidib) | log2 fold change (Tubastatin A) | log2 fold change [1] | log2 fold change (defactinib) | log2 fold change [2] | log2 fold change (encorafenib) | log2 fold change [3] | log2 fold change (alisertib) | log2 fold change [4] | log2 fold change (gefitinib) | log2 fold change (lapatinib) | log2 fold change (pictilisib) | log2 fold change (crizotinib) | log2 fold change [5] | log2 fold change (duvelisib) | log2 fold change (gandotinib) | log2 fold change (tozasertib) | log2 fold change (doramapimod) | log2 fold change (bafetinib) | log2 fold change [6] |
| --- | --- | --- | --- | --- | --- | --- | --- | --- | --- | --- | --- | --- | --- | --- | --- | --- | --- | --- | --- | --- |
| ART4 (UniProt Q93070) | inactive: 0.024 | – | – | inactive: -0.041 | – | inactive: 0.001 | inactive: -0.088 | – | – | – | – | inactive: 0.005 | – | inactive: 0.028 | – | inactive: 0.012 | inactive: 0.07 | – | inactive: -0.019 | inactive: -0.008 |
| API5 isoform 1 (UniProt Q9BZZ5) | inactive: -0.089 | inactive: 0.105 | – | – | – | – | – | inactive: 0.029 | – | inactive: -0.159 | – | – | inactive: 0.073 | inactive: 0.201 | – | inactive: 0.079 | – | inactive: 0.065 | – | inactive: 0.025 |
